Experimental findings from the supplement of paper PMC11006884 are described below.

The list shows a part of the results, in another mix than the full data.

Compound in this test: COC(=O)C#Cc1ccccc1 [methyl 3-phenylpropiolate]
Kind of test: log2 ratio of iodoacetamide-alkyne labeling of the cysteine site, DMSO over compound (competition); higher = stronger covalent engagement of the cysteine by the compound, active = 1 or more. To be noted: 500 µM; treatment time 1 h; system: HEK293T cell lysate. A digest of the protocol: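 HEK293T lysate (2 mg/mL) was treated with DMSO or electrophile (500 µM, 1 h, ambient temperature), then iodoacetamide alkyne (1 h), clicked to sCIP-TMT reagents, pooled, trypsin-digested overnight at 37 °C, streptavidin-enriched and acid-eluted. Peptides were run on Orbitrap Eclipse LC-MS/MS with FAIMS and quantified in FragPipe. The log2 competition ratio per cysteine is mean control-channel over mean compound-channel reporter intensity. Duplicate channels and three replicates were used, and cysteines quantified in only one replicate were excluded.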
UniProt Q9BQ75_C55: the “log2 ratio of iodoacetamide-alkyne labeling” value (shortened to “log2 ratio”) was inactive: 0.525.
On to MYBBP1A C1046 (UniProt Q9BQG0), for which the “log2 ratio” value was inactive: 0.245.
With STRBP C195 (UniProt Q96SI9), the “log2 ratio” value was inactive: 0.3.
For the target KIF2C C287 (UniProt Q99661), the “log2 ratio” value is inactive: 0.0204.
The result for USP28 C1058 (UniProt Q96RU2) reads inactive: 0.502.
The same measure for PUS7 C38 (UniProt Q96PZ0): inactive: 0.599; for ZFYVE21 C47 (UniProt Q9BQ24): inactive: 0.392.
With VAT1 C86 (UniProt Q99536), the “log2 ratio” value was inactive: 0.362.
NUDCD1 C376 (UniProt Q96RS6): the “log2 ratio” value is inactive: 0.65.
PBK C112 (UniProt Q96KB5): the “log2 ratio” value is inactive: 0.35.
In the case of USP28 C142 (UniProt Q96RU2), the “log2 ratio” value is active: 1.47.
The same measure for AKAP9 C2571 (UniProt Q99996): inactive: 0.309; for RBM14 C108 (UniProt Q96PK6): inactive: 0.0424.
For POP1 C408 (UniProt Q99575), the “log2 ratio” value is inactive: -0.153.
In the case of TMEM209 C301 (UniProt Q96SK2), the “log2 ratio” value is inactive: 0.858.
Take UniProt Q96L50_C246: the “log2 ratio” value is inactive: 0.109.
In the case of NCAPG C751 (UniProt Q9BPX3), the “log2 ratio” value is inactive: 0.416.
As to MMS19 C331 (UniProt Q96T76), the “log2 ratio” value is inactive: 0.00283.
The result for UniProt Q96SY0_C193 reads inactive: 0.38; that for UHRF1 C497 (UniProt Q96T88), inactive: 0.223; that for INTS4 C109 (UniProt Q96HW7), inactive: -0.26.
Regarding SUCLG2 C162 (UniProt Q96I99), the “log2 ratio” value is inactive: 0.437.
